The values below come from paper PMC7266993.

Numbering of substitutions follows the chain as printed. No constants are given. Whether binding was seen depends on the method and setting. Binding seen in cells or lysates may run through a third protein. For some of these results: A result given as binding can be weak or reduced; the word gives no strength. Where a sequence is shown, tags or fusion partners need not be part of it.

For experiment [1], the target named is T1, FLAG–STAG1 wild type, siRNA-resistant transgene (stable, HCT 116 STAG2-502c4) (human) (UniProt Q8WVM7).
T1 sequence: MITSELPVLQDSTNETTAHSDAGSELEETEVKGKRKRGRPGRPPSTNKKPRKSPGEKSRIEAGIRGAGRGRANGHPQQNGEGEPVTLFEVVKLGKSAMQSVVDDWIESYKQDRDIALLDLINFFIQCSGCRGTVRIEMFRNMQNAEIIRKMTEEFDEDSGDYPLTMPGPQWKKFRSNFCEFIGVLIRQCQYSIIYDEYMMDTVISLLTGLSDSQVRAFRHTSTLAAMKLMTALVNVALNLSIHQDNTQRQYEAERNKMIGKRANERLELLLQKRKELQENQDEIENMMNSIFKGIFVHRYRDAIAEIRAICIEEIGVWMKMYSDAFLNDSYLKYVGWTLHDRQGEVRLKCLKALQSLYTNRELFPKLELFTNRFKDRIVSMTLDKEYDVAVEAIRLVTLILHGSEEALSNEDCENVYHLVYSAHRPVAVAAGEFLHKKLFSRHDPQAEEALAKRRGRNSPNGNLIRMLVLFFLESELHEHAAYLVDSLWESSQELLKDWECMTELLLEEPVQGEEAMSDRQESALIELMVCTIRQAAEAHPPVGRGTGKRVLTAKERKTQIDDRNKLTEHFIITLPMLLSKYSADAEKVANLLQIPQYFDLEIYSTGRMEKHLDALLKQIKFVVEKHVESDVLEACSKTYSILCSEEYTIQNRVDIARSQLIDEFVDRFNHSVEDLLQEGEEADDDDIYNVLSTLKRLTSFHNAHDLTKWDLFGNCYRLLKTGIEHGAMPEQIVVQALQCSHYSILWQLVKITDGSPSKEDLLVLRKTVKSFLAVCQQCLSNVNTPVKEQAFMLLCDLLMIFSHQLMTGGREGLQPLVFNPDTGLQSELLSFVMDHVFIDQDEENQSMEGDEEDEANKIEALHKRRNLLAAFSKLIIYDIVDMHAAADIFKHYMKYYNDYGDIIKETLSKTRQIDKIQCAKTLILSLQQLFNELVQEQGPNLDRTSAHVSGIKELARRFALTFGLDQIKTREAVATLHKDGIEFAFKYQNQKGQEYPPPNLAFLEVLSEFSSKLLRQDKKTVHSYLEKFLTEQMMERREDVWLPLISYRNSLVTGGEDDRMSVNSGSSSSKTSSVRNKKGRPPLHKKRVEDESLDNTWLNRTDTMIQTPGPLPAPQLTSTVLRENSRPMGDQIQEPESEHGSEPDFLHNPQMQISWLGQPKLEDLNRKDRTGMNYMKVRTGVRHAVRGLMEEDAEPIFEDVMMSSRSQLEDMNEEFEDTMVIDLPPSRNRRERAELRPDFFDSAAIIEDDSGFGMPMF
The experiment can be described thus: co-IP; FLAG-STAG1 variants stably expressed in HCT 116 STAG2-502c4; anti-FLAG M2 agarose overnight; 50 mM Tris-Cl pH 7.4, 150 mM NaCl, 0.5% NP-40; capillary immunodetection of cohesin ring members.

In experiment [2] the target is T2, FLAG–STAG1 D797K, siRNA-resistant transgene (stable, HCT 116 STAG2-502c4) (human) (UniProt Q8WVM7).
T2 sequence: T1 sequence with D797K
Described as above.

Experiment [3] addresses T3, FLAG–STAG1 D797A, siRNA-resistant transgene (stable, HCT 116 STAG2-502c4) (human) (UniProt Q8WVM7).
T3 sequence: T1 sequence with D797A
The experiment is described as above.

The target of experiment [4] is T4, FLAG epitope-tagged STAG1, wild type (transient, HEK293) (human) (UniProt Q8WVM7).
T4 sequence: T1 sequence
Description: co-IP; FLAG-STAG1 variants transiently expressed in HEK293, 48 h; anti-FLAG M2 agarose 2 h; 25 mM Tris-HCl pH 7.5, 100 mM KCl, 5 mM MgCl2, 0.2% NP-40, 10% glycerol, benzonase; immunoblot and capillary immunodetection of cohesin subunits. On the technique in general: Immunoblotting shows a protein as a band on a membrane.

Turning to “SMC1 (endogenous, HCT 116 STAG2-502c4) (human (endogenous in HCT 116))”, the binding entry in experiment [1] was “binds”; in experiment [2], “no binding”; in experiment [3], “no binding”.
As to “SMC1 (endogenous, HEK293) (human (endogenous in HEK293))”, the binding result in experiment [4] was “binds”.
